PubChem BioAssay AID743454 – Peter MacCallum Cancer Centre, 2014

- Assay: 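Genes whose loss kills vorinostat-resistant colon cancer cells under vorinostat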 (primary screen)
- System: human HCT116-VR colon cancer cells, selected for vorinostat resistance
- Knock-down reagent: siRNA pool against human genes, 40 nM siRNA pool
- Time to read-out: vorinostat for 24 h, read-out about 72 h after transfection
- Challenge: vorinostat at 2.5 µM final
- Measurement: 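Two measures, CellTiter-Fluor viability and luminescent caspase 3/7 activity, each as fold change against same-plate mock wells, mean of duplicates, then screen-wide robust z-score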
- Reading the numbers: viability robust z-score: higher = more viable cells than screen typical; caspase robust z-score: higher = more caspase 3/7 activity than screen typical
- Active means: 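a knock-down is a hit when classed RV1 or RV2 for lowered viability, or CA1 or CA2 for caspase activation; those lethal without drug were dropped; hits were retested singly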
Shown is a random part of about 18,000 reagents tested. Of all reagents, 450 (2.5%) are marked active. 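Single biological run; no consistent viability z cut-off exists, so the class columns, not z-scores, define the calls.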

The opening 2 records, ahead of the listing:
no.	Target gene	viability hit class	caspase hit class	viability robust z-score	caspase robust z-score	Call
1	H2BC1 (GeneID 255626)	no change	no change	-0.49	-0.61	inactive
2	HLA-F (GeneID 3134)	no change	no change	0.48	1.05	inactive

Main list, from the start:
no.	Target gene	viability hit class	caspase hit class	viability robust z-score	caspase robust z-score	Call
1	H2BC1 (GeneID 255626)	no change	no change	-0.49	-0.61	inactive
2	HLA-F (GeneID 3134)	no change	no change	0.48	1.05	inactive
3	VKORC1 (GeneID 79001)	no change	no change	-0.13	0.66	inactive
4	NUMBL (GeneID 9253)	no change	no change	-1.94	1.24	inactive
5	P2RY2 (GeneID 5029)	no change	no change	0.3	4.9	inactive
6	KRT1 (GeneID 3848)	no change	no change	0.44	-0.6	inactive
7	RC3H1 (GeneID 149041)	no change	no change	-1.66	0.53	inactive
8	ATG2A (GeneID 23130)	no change	no change	0.63	-0.5	inactive
9	VEGFD (GeneID 2277)	no change	no change	0.24	-0.4	inactive
10	MYH13 (GeneID 8735)	no change	no change	-0.57	-0.27	inactive
11	FADS3 (GeneID 3995)	no change	no change	-0.89	0.36	inactive
12	TNP2 (GeneID 7142)	no change	no change	-0.12	-0.02	inactive
13	TMEM53 (GeneID 79639)	no change	no change	-0.9	-0.97	inactive
14	ABCA9 (GeneID 10350)	no change	no change	1.24	0.22	inactive
15	NOPCHAP1 (GeneID 121053)	no change	no change	-0.06	0.19	inactive
16	TACR2 (GeneID 6865)	no change	no change	0.78	-0.3	inactive
17	B4GALT7 (GeneID 11285)	no change	no change	-1.27	-0.3	inactive
18	DPM1 (GeneID 8813)	no change	no change	-0.03	-0.34	inactive
19	PLAGL2 (GeneID 5326)	no change	no change	1.21	0.09	inactive
20	ATP6V1G2 (GeneID 534)	no change	no change	0.18	-0.34	inactive
21	RAD51B (GeneID 5890)	no change	no change	-0.82	2.34	inactive
22	OR1N1 (GeneID 138883)	no change	no change	1.22	-0.48	inactive
23	SRGAP2 (GeneID 23380)	no change	no change	-0.26	1.98	inactive
24	HTATIP2 (GeneID 10553)	no change	no change	-0.12	0.2	inactive
25	TRHDE (GeneID 29953)	no change	no change	0	-0.66	inactive
26	NR2E1 (GeneID 7101)	no change	no change	-0.33	-0.24	inactive
27	NAALADL2 (GeneID 254827)	no change	no change	2.04	-0.28	inactive
28	SLC23A3 (GeneID 151295)	no change	no change	0.27	-1.14	inactive
29	DOCK3 (GeneID 1795)	no change	no change	0.22	0.15	inactive
30	C2CD3 (GeneID 26005)	no change	no change	-1.23	-0.65	inactive
31	NAP1L3 (GeneID 4675)	no change	no change	0.49	-0.4	inactive
32	CEP68 (GeneID 23177)	no change	no change	-0.76	-0.68	inactive
33	HEXA (GeneID 3073)	no change	no change	-1.72	0.35	inactive
34	BET1 (GeneID 10282)	no change	no change	0.8	0.2	inactive
35	MIS12 (GeneID 79003)	no change	no change	-1.25	2.09	inactive
36	RILP (GeneID 83547)	no change	no change	-0.2	-0.66	inactive
37	RPL7L1 (GeneID 285855)	RV2 (reduced viability)	no change	-3.03	2.11	active
38	GLT8D2 (GeneID 83468)	no change	no change	-1.2	-0.14	inactive
39	SRP19 (GeneID 6728)	no change	no change	-0.12	-0.04	inactive
40	RPS6KL1 (GeneID 83694)	no change	no change	-0.91	1.2	inactive
41	TMEM242 (GeneID 729515)	no change	no change	0.21	1.75	inactive
42	TP53TG3 (GeneID 24150)	no change	no change	-0.84	0.76	inactive
43	TBC1D32 (GeneID 221322)	no change	no change	0.56	0.18	inactive
44	SLC22A15 (GeneID 55356)	no change	no change	-1.15	1.23	inactive
45	TEAD1 (GeneID 7003)	no change	no change	-0.84	-0.26	inactive
46	MMP20 (GeneID 9313)	no change	no change	1.36	0.3	inactive
47	EIF5A2 (GeneID 56648)	no change	no change	-0.33	0.12	inactive
48	ANKH (GeneID 56172)	no change	no change	-1.92	-0.22	inactive
49	BRD9 (GeneID 65980)	no change	no change	0.8	-0.01	inactive
50	TIMELESS (GeneID 8914)	no change	no change	1.15	1.62	inactive
51	PHC3 (GeneID 80012)	no change	no change	-0.3	-0.78	inactive
52	ZNF248 (GeneID 57209)	no change	no change	-0.18	0.08	inactive
53	C18orf32 (GeneID 497661)	no change	no change	1.42	1.94	inactive
54	WRAP73 (GeneID 49856)	no change	no change	-2.09	2.67	inactive
55	MLF1 (GeneID 4291)	no change	no change	-0.02	2.9	inactive
56	PCID2 (GeneID 55795)	no change	no change	0.15	0.34	inactive
57	DPPA5 (GeneID 340168)	no change	CA1 (caspase activation)	-0.98	6.21	active
